Measurements from PMC4807078.
Results are given in words; binding and its absence hold for the method and conditions named. Binding seen in cells or lysates may run through a third protein. Some results given as binding are weak or reduced against the parent protein; the word gives no strength.

Amino acid sequences for entries named in this document (tags omitted).
UniProt P26358: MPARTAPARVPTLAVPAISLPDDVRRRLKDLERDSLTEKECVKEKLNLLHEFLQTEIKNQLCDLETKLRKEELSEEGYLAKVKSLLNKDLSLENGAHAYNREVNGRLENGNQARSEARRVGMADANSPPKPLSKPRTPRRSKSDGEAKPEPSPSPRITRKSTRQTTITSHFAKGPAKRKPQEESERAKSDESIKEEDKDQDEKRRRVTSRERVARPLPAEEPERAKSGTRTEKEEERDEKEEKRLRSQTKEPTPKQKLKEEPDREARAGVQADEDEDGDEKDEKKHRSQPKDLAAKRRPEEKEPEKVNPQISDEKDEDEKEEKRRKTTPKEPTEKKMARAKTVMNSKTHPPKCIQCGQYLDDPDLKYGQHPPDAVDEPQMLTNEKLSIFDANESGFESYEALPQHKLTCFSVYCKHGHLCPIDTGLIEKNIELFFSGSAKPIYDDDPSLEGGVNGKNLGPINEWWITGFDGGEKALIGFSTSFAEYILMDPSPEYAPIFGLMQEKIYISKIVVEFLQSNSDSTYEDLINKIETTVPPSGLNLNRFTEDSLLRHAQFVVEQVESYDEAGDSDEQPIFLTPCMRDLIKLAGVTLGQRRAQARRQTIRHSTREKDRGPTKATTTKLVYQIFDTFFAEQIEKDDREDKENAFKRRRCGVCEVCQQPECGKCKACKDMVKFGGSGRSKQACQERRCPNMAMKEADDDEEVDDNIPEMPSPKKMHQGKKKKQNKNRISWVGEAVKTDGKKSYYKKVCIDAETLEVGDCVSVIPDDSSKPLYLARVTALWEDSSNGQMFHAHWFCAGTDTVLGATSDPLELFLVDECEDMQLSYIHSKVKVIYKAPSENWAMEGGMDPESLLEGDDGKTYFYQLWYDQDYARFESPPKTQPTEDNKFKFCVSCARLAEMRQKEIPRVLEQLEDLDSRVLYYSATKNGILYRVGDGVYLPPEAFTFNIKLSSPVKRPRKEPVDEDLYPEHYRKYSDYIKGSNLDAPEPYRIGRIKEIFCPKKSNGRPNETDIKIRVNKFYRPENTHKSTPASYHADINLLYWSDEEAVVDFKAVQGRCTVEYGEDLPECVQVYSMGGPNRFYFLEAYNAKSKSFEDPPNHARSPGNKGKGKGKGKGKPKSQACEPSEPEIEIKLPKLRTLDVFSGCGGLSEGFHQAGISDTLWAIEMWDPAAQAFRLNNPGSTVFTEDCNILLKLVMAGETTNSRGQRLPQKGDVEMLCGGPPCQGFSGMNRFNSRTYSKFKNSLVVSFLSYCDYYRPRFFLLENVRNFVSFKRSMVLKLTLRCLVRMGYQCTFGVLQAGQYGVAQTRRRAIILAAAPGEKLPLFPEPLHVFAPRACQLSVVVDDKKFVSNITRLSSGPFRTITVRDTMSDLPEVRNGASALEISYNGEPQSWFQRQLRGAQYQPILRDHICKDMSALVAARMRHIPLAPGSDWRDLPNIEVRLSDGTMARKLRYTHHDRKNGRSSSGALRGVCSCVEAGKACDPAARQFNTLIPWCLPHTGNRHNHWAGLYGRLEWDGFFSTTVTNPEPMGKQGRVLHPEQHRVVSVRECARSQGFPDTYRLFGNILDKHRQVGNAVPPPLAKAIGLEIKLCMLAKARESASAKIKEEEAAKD
UniProt P15976: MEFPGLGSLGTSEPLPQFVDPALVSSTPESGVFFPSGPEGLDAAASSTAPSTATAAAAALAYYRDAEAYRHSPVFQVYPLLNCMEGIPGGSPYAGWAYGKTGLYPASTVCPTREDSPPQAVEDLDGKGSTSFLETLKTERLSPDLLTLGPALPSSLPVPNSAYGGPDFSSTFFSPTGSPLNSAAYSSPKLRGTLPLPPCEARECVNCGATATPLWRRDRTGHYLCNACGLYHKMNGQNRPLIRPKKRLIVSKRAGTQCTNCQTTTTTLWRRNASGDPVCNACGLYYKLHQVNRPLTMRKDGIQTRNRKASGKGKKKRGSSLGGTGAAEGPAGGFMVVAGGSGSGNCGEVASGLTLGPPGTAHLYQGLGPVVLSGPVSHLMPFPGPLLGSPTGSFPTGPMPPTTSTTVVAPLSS

Biological target: DNA methyl Transferase I (DNMT1) (human (endogenous in OCI-M2 and K562)) (UniProt P26358)
Assay: co-IP; endogenous proteins of OCI-M2 and K562 cells; precipitated with anti-DNMT1 antibody (control IgG beside it), 2h incubation, washed 3x in 0.1% Triton X-100, 50mM Tris-HCl pH7.4, 300mM NaCl, 5mM EDTA; immunoblot for GATA-1 and PU.1

- binding: binds
Substance: GATA-1 (from UniProt P15976 1-413)
